# Reference: patent US20200383327A1, “METHOD OF IMPROVING PLANT PERFORMANCE” (The State of Israel, Ministry of Agriculture & Rural …, priority 2018, published 2020)
# Assay: Sedimentation of Phe on leaves of treated petunia plants
# Details: up to 35 mM
smiles,measurement,setting,value
"N[C@@H](Cc1ccccc1)C(=O)O [Phe, Phenylalanine]",Sedimentation of Phe,"drenched, FIGS. 8A-8B",no sedimentation of the drenched Phe was noticed
same,Sedimentation of Phe,"sprayed, FIGS. 7A-7B",no sedimentation of the sprayed Phe was noticed
